Data: article PMC8364686, “Safety, tolerability, pharmacokinetics and pharmacodynamics of single oral doses of BI 187004, an inhibitor of 11beta-hydroxysteroid dehydrogenase-1, in healthy male volunteers with overweight or obesity” (Clinical Diabetes and Endocrinology, 2021)
Several values for one entry are separate records, joined by “and”; a condition that tells them apart may be missing. Equal values may be shown once. This continues a long series; more values of the same kind are listed elsewhere.

Experiment: Plasma pharmacokinetics of BI 187004 after single oral doses (LC–MS/MS)
Conditions: individual subjects

In the case of `N#Cc1ccc2c(c1)[C@H]1CCCN(C(=O)c3ccc4[nH]cnc4c3)[C@H]1C2` [BI 187004], the “BI 187004 plasma concentrations” value (80 mg single oral, planned time 0.5 h) is reported as 304 nmol/L and 1310 nmol/L and 738 nmol/L and 4480 nmol/L and 539 nmol/L and 3280 nmol/L, the “BI 187004 plasma concentrations” value (80 mg single oral, planned time 1 h) is reported as 771 nmol/L and 1380 nmol/L and 2340 nmol/L and 4770 nmol/L and 2250 nmol/L and 3430 nmol/L and the “BI 187004 plasma concentrations” value (80 mg single oral, planned time 1.5 h) is reported as 958 nmol/L and 1380 nmol/L and 2790 nmol/L and 4150 nmol/L and 2290 nmol/L and 3410 nmol/L. The “BI 187004 plasma concentrations” value (80 mg single oral, planned time 2 h) was 1000 nmol/L and 1460 nmol/L and 2570 nmol/L and 3590 nmol/L and 2230 nmol/L and 3110 nmol/L, the “BI 187004 plasma concentrations” value (80 mg single oral, planned time 2.5 h) was 1200 nmol/L and 1450 nmol/L and 2940 nmol/L and 3200 nmol/L and 2640 nmol/L and 2650 nmol/L and the “BI 187004 plasma concentrations” value (80 mg single oral, planned time 3 h) was 1050 nmol/L and 1360 nmol/L and 2570 nmol/L and 3340 nmol/L and 2360 nmol/L and 2750 nmol/L. For the same molecule, the “BI 187004 plasma concentrations” value (80 mg single oral, planned time 4 h) was 936 nmol/L and 1380 nmol/L and 2750 nmol/L and 3200 nmol/L and 2220 nmol/L and 2700 nmol/L, the “BI 187004 plasma concentrations” value (80 mg single oral, planned time 5 h) was 905 nmol/L and 1350 nmol/L and 2080 nmol/L and 3210 nmol/L and 2000 nmol/L and 2350 nmol/L and the “BI 187004 plasma concentrations” value (80 mg single oral, planned time 6 h) was 930 nmol/L and 1210 nmol/L and 2080 nmol/L and 2460 nmol/L and 1750 nmol/L and 1990 nmol/L. The “BI 187004 plasma concentrations” value (80 mg single oral, planned time 8 h) was 1100 nmol/L and 1420 nmol/L and 2190 nmol/L and 2840 nmol/L and 1630 nmol/L and 1750 nmol/L, the “BI 187004 plasma concentrations” value (80 mg single oral, planned time 10 h) was 1040 nmol/L and 1200 nmol/L and 1870 nmol/L and 2570 nmol/L and 1370 nmol/L and 1540 nmol/L and the “BI 187004 plasma concentrations” value (80 mg single oral, planned time 12 h) was 1000 nmol/L and 959 nmol/L and 1680 nmol/L and 2210 nmol/L and 1190 nmol/L and 1230 nmol/L. For the same molecule, the “BI 187004 plasma concentrations” value (80 mg single oral, planned time 24 h) was 767 nmol/L and 605 nmol/L and 1100 nmol/L and 1560 nmol/L and 856 nmol/L and 673 nmol/L, the “BI 187004 plasma concentrations” value (80 mg single oral, planned time 36 h) was 223 nmol/L and 284 nmol/L and 538 nmol/L and 678 nmol/L and 417 nmol/L and 327 nmol/L and the “BI 187004 plasma concentrations” value (80 mg single oral, planned time 48 h) was 134 nmol/L and 163 nmol/L and 332 nmol/L and 596 nmol/L and 248 nmol/L and 211 nmol/L. The “BI 187004 plasma concentrations” value (80 mg single oral, planned time 72 h) was 46.3 nmol/L and 49.0 nmol/L and 81.2 nmol/L and 234 nmol/L and 82.3 nmol/L and 46.9 nmol/L, the “BI 187004 plasma concentrations” value (80 mg single oral, planned time 96 h) was 23.3 nmol/L and 18.8 nmol/L and 24.3 nmol/L and 110 nmol/L and 81.0 nmol/L and 11.9 nmol/L and the “BI 187004 plasma concentrations” value (160 mg single oral, planned time 0.5 h) was 5710 nmol/L and 8780 nmol/L and 4660 nmol/L and 8640 nmol/L and 7950 nmol/L and 2520 nmol/L. For the same molecule, the “BI 187004 plasma concentrations” value (160 mg single oral, planned time 1 h) was 8460 nmol/L and 7170 nmol/L and 7510 nmol/L and 7770 nmol/L and 8740 nmol/L and 3920 nmol/L, the “BI 187004 plasma concentrations” value (160 mg single oral, planned time 1.5 h) was 7110 nmol/L and 8830 nmol/L and 7270 nmol/L and 7780 nmol/L and 5190 nmol/L and the “BI 187004 plasma concentrations” value (160 mg single oral, planned time 2 h) was 6610 nmol/L and 8640 nmol/L and 6360 nmol/L and 6910 nmol/L and 6660 nmol/L. For the same molecule, the “BI 187004 plasma concentrations” value (160 mg single oral, planned time 2.5 h) was 6250 nmol/L and 8030 nmol/L and 6070 nmol/L and 6820 nmol/L and 6270 nmol/L, the “BI 187004 plasma concentrations” value (160 mg single oral, planned time 3 h) was 5820 nmol/L and 7450 nmol/L and 5770 nmol/L and 5860 nmol/L and 5330 nmol/L and the “BI 187004 plasma concentrations” value (160 mg single oral, planned time 4 h) was 6210 nmol/L and 6040 nmol/L and 5530 nmol/L and 6750 nmol/L and 5060 nmol/L. The “BI 187004 plasma concentrations” value (160 mg single oral, planned time 5 h) was 5220 nmol/L and 4630 nmol/L and 5160 nmol/L and 4950 nmol/L and 4850 nmol/L, the “BI 187004 plasma concentrations” value (160 mg single oral, planned time 6 h) was 3980 nmol/L and 4420 nmol/L and 4830 nmol/L and 5320 nmol/L and 3430 nmol/L and the “BI 187004 plasma concentrations” value (160 mg single oral, planned time 8 h) was 2580 nmol/L and 4030 nmol/L and 3800 nmol/L and 4580 nmol/L and 3680 nmol/L. The “BI 187004 plasma concentrations” value (160 mg single oral, planned time 10 h) was 2950 nmol/L and 3120 nmol/L and 3410 nmol/L and 2810 nmol/L and 4290 nmol/L and 1940 nmol/L, the “BI 187004 plasma concentrations” value (160 mg single oral, planned time 12 h) was 2810 nmol/L and 2940 nmol/L and 2920 nmol/L and 3640 nmol/L and 2890 nmol/L and the “BI 187004 plasma concentrations” value (160 mg single oral, planned time 24 h) was 1530 nmol/L and 1410 nmol/L and 1660 nmol/L and 2690 nmol/L and 1440 nmol/L. The “BI 187004 plasma concentrations” value (160 mg single oral, planned time 36 h) was 570 nmol/L and 655 nmol/L and 576 nmol/L and 476 nmol/L and 1390 nmol/L and 631 nmol/L, the “BI 187004 plasma concentrations” value (160 mg single oral, planned time 48 h) was 344 nmol/L and 333 nmol/L and 359 nmol/L and 374 nmol/L and 1000 nmol/L and 329 nmol/L and the “BI 187004 plasma concentrations” value (160 mg single oral, planned time 72 h) was 100 nmol/L and 113 nmol/L and 103 nmol/L and 121 nmol/L and 312 nmol/L and 85.9 nmol/L. For the same molecule, the “BI 187004 plasma concentrations” value (160 mg single oral, planned time 96 h) was 28.0 nmol/L and 32.1 nmol/L and 46.8 nmol/L and 31.7 nmol/L, the “BI 187004 plasma concentrations” value (240 mg single oral, planned time 0.5 h) was 130 nmol/L and 7450 nmol/L and 4950 nmol/L and 6100 nmol/L and 8440 nmol/L and 4180 nmol/L and the “BI 187004 plasma concentrations” value (240 mg single oral, planned time 1 h) was 440 nmol/L and 10700 nmol/L and 9740 nmol/L and 7600 nmol/L and 9250 nmol/L and 7180 nmol/L. The “BI 187004 plasma concentrations” value (240 mg single oral, planned time 1.5 h) was 811 nmol/L and 8600 nmol/L and 9030 nmol/L and 7090 nmol/L and 6280 nmol/L and 6690 nmol/L, the “BI 187004 plasma concentrations” value (240 mg single oral, planned time 2 h) was 543 nmol/L and 9220 nmol/L and 8860 nmol/L and 6350 nmol/L and 5400 nmol/L and 7210 nmol/L and the “BI 187004 plasma concentrations” value (240 mg single oral, planned time 2.5 h) was 605 nmol/L and 8490 nmol/L and 8510 nmol/L and 6340 nmol/L and 5680 nmol/L and 8190 nmol/L. For the same molecule, the “BI 187004 plasma concentrations” value (240 mg single oral, planned time 3 h) was 388 nmol/L and 6980 nmol/L and 5360 nmol/L and 6510 nmol/L and 5530 nmol/L and 6150 nmol/L, the “BI 187004 plasma concentrations” value (240 mg single oral, planned time 4 h) was 575 nmol/L and 5540 nmol/L and 8420 nmol/L and 5820 nmol/L and 5390 nmol/L and 7330 nmol/L and the “BI 187004 plasma concentrations” value (240 mg single oral, planned time 5 h) was 494 nmol/L and 3960 nmol/L and 6570 nmol/L and 5820 nmol/L and 5040 nmol/L and 6780 nmol/L. For the same molecule, the “BI 187004 plasma concentrations” value (240 mg single oral, planned time 6 h) was 452 nmol/L and 5150 nmol/L and 6370 nmol/L and 5390 nmol/L and 2610 nmol/L and 5990 nmol/L, the “BI 187004 plasma concentrations” value (240 mg single oral, planned time 8 h) was 181 nmol/L and 4780 nmol/L and 5380 nmol/L and 3960 nmol/L and 3640 nmol/L and 5130 nmol/L and the “BI 187004 plasma concentrations” value (240 mg single oral, planned time 10 h) was 313 nmol/L and 4080 nmol/L and 5800 nmol/L and 3310 nmol/L and 3060 nmol/L and 4160 nmol/L. For the same molecule, the “BI 187004 plasma concentrations” value (240 mg single oral, planned time 12 h) was 258 nmol/L and 3440 nmol/L and 3900 nmol/L and 3170 nmol/L and 2610 nmol/L and 2180 nmol/L, the “BI 187004 plasma concentrations” value (240 mg single oral, planned time 24 h) was 2500 nmol/L and 2630 nmol/L and 1720 nmol/L and 1530 nmol/L and 2460 nmol/L and the “BI 187004 plasma concentrations” value (240 mg single oral, planned time 36 h) was 567 nmol/L and 1200 nmol/L and 1340 nmol/L and 787 nmol/L and 677 nmol/L and 987 nmol/L. The “BI 187004 plasma concentrations” value (240 mg single oral, planned time 48 h) was 255 nmol/L and 755 nmol/L and 794 nmol/L and 376 nmol/L and 321 nmol/L and 545 nmol/L, the “BI 187004 plasma concentrations” value (240 mg single oral, planned time 72 h) was 54.1 nmol/L and 323 nmol/L and 312 nmol/L and 54.4 nmol/L and 71.7 nmol/L and 126 nmol/L and the “BI 187004 plasma concentrations” value (240 mg single oral, planned time 96 h) was 15.8 nmol/L and 181 nmol/L and 68.2 nmol/L and 18.2 nmol/L and 36.4 nmol/L. The “BI 187004 plasma concentrations” value (360 mg single oral, planned time 0.5 h) was 15400 nmol/L and 16800 nmol/L and 11000 nmol/L and 5800 nmol/L and 7980 nmol/L and 12200 nmol/L, the “BI 187004 plasma concentrations” value (360 mg single oral, planned time 1 h) was 18400 nmol/L and 12000 nmol/L and 14500 nmol/L and 7170 nmol/L and 13600 nmol/L and 13000 nmol/L and the “BI 187004 plasma concentrations” value (360 mg single oral, planned time 1.5 h) was 15900 nmol/L and 10800 nmol/L and 13900 nmol/L and 6450 nmol/L and 12400 nmol/L and 9540 nmol/L. The “BI 187004 plasma concentrations” value (360 mg single oral, planned time 2 h) was 14500 nmol/L and 10700 nmol/L and 10900 nmol/L and 6660 nmol/L and 10400 nmol/L and 12300 nmol/L, the “BI 187004 plasma concentrations” value (360 mg single oral, planned time 2.5 h) was 14600 nmol/L and 9770 nmol/L and 14100 nmol/L and 6880 nmol/L and 5660 nmol/L and 10700 nmol/L and the “BI 187004 plasma concentrations” value (360 mg single oral, planned time 3 h) was 12900 nmol/L and 9220 nmol/L and 7970 nmol/L and 6300 nmol/L and 9450 nmol/L and 10300 nmol/L. The “BI 187004 plasma concentrations” value (360 mg single oral, planned time 4 h) was 12200 nmol/L and 8290 nmol/L and 10400 nmol/L and 5670 nmol/L and 10100 nmol/L and 10900 nmol/L, the “BI 187004 plasma concentrations” value (360 mg single oral, planned time 5 h) was 6320 nmol/L and 8770 nmol/L and 8180 nmol/L and 4810 nmol/L and 7560 nmol/L and 9630 nmol/L and the “BI 187004 plasma concentrations” value (360 mg single oral, planned time 6 h) was 8320 nmol/L and 6450 nmol/L and 5790 nmol/L and 6310 nmol/L. For the same molecule, the “BI 187004 plasma concentrations” value (360 mg single oral, planned time 8 h) was 7780 nmol/L and 6280 nmol/L and 5060 nmol/L and 6260 nmol/L and 6210 nmol/L, the “BI 187004 plasma concentrations” value (360 mg single oral, planned time 10 h) was 7680 nmol/L and 6390 nmol/L and 4960 nmol/L and 3360 nmol/L and 6280 nmol/L and 4310 nmol/L and the “BI 187004 plasma concentrations” value (360 mg single oral, planned time 12 h) was 5510 nmol/L and 4380 nmol/L and 3780 nmol/L and 4600 nmol/L and 4650 nmol/L. The “BI 187004 plasma concentrations” value (360 mg single oral, planned time 24 h) was 4740 nmol/L and 3110 nmol/L and 1790 nmol/L and 2300 nmol/L and 3010 nmol/L and 2090 nmol/L, the “BI 187004 plasma concentrations” value (360 mg single oral, planned time 36 h) was 1970 nmol/L and 1990 nmol/L and 830 nmol/L and 1300 nmol/L and 1680 nmol/L and 1090 nmol/L and the “BI 187004 plasma concentrations” value (360 mg single oral, planned time 48 h) was 1470 nmol/L and 1220 nmol/L and 740 nmol/L and 997 nmol/L and 587 nmol/L. For the same molecule, the “BI 187004 plasma concentrations” value (360 mg single oral, planned time 72 h) was 497 nmol/L and 516 nmol/L and 69.1 nmol/L and 235 nmol/L and 326 nmol/L and 164 nmol/L and the “BI 187004 plasma concentrations” value (360 mg single oral, planned time 96 h) was 174 nmol/L and 170 nmol/L and 16.8 nmol/L and 61.1 nmol/L and 102 nmol/L and 46.3 nmol/L.
